Test [1] deals with T1, Flag-hEdc3-D443V-RFP (human) (UniProt Q96F86).
T1 sequence: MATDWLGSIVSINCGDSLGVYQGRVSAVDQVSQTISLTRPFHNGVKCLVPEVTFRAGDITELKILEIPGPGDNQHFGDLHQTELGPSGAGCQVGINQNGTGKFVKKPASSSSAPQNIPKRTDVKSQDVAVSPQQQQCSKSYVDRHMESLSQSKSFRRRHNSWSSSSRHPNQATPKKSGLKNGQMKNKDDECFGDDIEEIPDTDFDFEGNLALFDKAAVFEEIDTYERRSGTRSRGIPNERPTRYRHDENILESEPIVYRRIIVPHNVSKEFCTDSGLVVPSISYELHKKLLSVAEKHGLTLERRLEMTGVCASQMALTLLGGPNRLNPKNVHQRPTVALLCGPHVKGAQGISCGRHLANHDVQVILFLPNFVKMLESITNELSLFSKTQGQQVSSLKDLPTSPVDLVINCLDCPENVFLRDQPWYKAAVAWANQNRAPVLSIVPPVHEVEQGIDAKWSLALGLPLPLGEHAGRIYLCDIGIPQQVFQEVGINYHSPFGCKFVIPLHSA
The test can be described thus: co-IP; Flag-M2-agarose precipitation of Flag-hEdc3-RFP (WT or D443V) from HeLa cells transfected with 25 ug plasmid, about 20 hr after transfection, treated with 0.5 mM sodium arsenite for 1 hr; endogenous Edc3, Dcp1a and DDX6 detected by blot.

The target of a further test is T2, Flag-hEdc3-RFP (human) (UniProt Q96F86).
T2 sequence: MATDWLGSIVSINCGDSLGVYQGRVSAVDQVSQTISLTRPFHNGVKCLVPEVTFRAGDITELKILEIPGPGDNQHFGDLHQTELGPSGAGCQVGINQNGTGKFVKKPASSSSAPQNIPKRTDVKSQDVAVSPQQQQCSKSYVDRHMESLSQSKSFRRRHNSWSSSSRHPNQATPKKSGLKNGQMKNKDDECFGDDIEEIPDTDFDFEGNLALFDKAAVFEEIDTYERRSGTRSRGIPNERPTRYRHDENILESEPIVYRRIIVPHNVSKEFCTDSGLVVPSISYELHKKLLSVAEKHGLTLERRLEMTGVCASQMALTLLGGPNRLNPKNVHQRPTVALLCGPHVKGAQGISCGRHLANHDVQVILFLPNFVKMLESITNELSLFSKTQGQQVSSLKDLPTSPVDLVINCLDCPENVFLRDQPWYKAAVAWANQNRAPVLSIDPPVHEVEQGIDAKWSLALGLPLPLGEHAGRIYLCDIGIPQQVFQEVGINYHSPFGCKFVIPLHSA
The test is described as above.

These are yes or no findings as the source states them, for the method shown. Binding seen in cells or lysates may run through a third protein. Some binding calls cover weakened binding; strength is not graded here. Where a sequence is shown, tags or fusion partners need not be part of it.

B1: endogenous Edc3 (protein, UniProt Q96F86 1-508)
chain: MATDWLGSIVSINCGDSLGVYQGRVSAVDQVSQTISLTRPFHNGVKCLVPEVTFRAGDITELKILEIPGPGDNQHFGDLHQTELGPSGAGCQVGINQNGTGKFVKKPASSSSAPQNIPKRTDVKSQDVAVSPQQQQCSKSYVDRHMESLSQSKSFRRRHNSWSSSSRHPNQATPKKSGLKNGQMKNKDDECFGDDIEEIPDTDFDFEGNLALFDKAAVFEEIDTYERRSGTRSRGIPNERPTRYRHDENILESEPIVYRRIIVPHNVSKEFCTDSGLVVPSISYELHKKLLSVAEKHGLTLERRLEMTGVCASQMALTLLGGPNRLNPKNVHQRPTVALLCGPHVKGAQGISCGRHLANHDVQVILFLPNFVKMLESITNELSLFSKTQGQQVSSLKDLPTSPVDLVINCLDCPENVFLRDQPWYKAAVAWANQNRAPVLSIDPPVHEVEQGIDAKWSLALGLPLPLGEHAGRIYLCDIGIPQQVFQEVGINYHSPFGCKFVIPLHSA
On to B1, for which the binding entry (in test [1]; with Flag-hEdc3-RFP (human)) was “binds” in each case.

The values above are taken from paper PMC4059234, “Edc3 Function in Yeast and Mammals Is Modulated by Interaction with NAD-Related Compounds” (G3: Genes|Genomes|Genetics, 2014).
